Measurements reported in PubChem BioAssay AID1053208 (Peter MacCallum Cancer Centre, 2014).
Screen: 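Synthetic lethal interactions between gene loss and doxorubicin in osteosarcoma cells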 (primary screen). Cell system: mouse osteosarcoma cells, early-passage culture from an engineered mouse model of fibroblastic bone tumour. Reagent: siRNA pool against mouse genes, 40 nM. Time to read-out: about 120 h (48 h before drug, then 72 h with drug). Challenge: doxorubicin 100 nM for 72 h, roughly 30-40% inhibitory dose. Read-out: 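Luminescent ATP signal taken as viability with or without 100 nM doxorubicin for 72 h; mean of two wells set against non-targeting siRNA and turned into robust z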. Direction: viability z-score with doxorubicin: higher = more viable cells under doxorubicin; viability z-score without drug: higher = more viable cells with knock-down alone. Active means: 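a pool counts as active when its viability z-score with doxorubicin is -2 or below and its z-score without drug lies between -2 and 2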.
In all, the deposit lists about 17,000 reagents; this is a random part of them. 788 of all reagents (4.7%) were called active. 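Calls rest on z-score classes alone; an extra cut-off of viability at most 70% of control was not applied to them.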 Further read-outs or replicates are left out here.

| gene knocked down | combined z-score class | viability z-score with doxorubicin | viability z-score without drug | outcome |
| --- | --- | --- | --- | --- |
| Fam53a | no change with or without drug | 0 | 1.52 | inactive |
| Alg13 | no change with or without drug | -0.22 | 0.84 | inactive |
| Vmn1r231 | no change with or without drug | -1.24 | -0.51 | inactive |
| Col3a1 | no change with or without drug | 0.22 | 0.17 | inactive |
| Nsd3 | no change with or without drug | 0.22 | 0.51 | inactive |
| Hsf3 | no change with or without drug | 1.24 | -0.84 | inactive |
| Barhl1 | no change with or without drug | 0.9 | 0.17 | inactive |
| B9d1 | low cell count with doxorubicin only | -3.04 | -0.51 | active |
| Ppp1r14b | no change with or without drug | 0 | -0.17 | inactive |
| Arl1 | low cell count without drug only | -0.34 | -2.53 | inactive |
| Or6k4 | no change with or without drug | 0.34 | 0.67 | inactive |
| Rpp25l | no change with or without drug | -0.45 | -0.84 | inactive |
| Pop4 | no change with or without drug | 0.9 | 0.51 | inactive |
| Aasdh | no change with or without drug | 0.34 | -0.84 | inactive |
| Ptk6 | no change with or without drug | 0.22 | 0.17 | inactive |
| C2cd5 | no change with or without drug | -0.22 | -0.17 | inactive |
| Polr2h | low cell count with and without drug | -6.63 | -2.19 | inactive |
| Cnbp | no change with or without drug | -0.9 | -0.84 | inactive |
| Pou2f1 | high cell count without drug only | 0.9 | 2.19 | inactive |
| Cnot9 | no change with or without drug | -0.9 | -0.17 | inactive |
| Hunk | no change with or without drug | 0.34 | 1.85 | inactive |
| Hvcn1 | no change with or without drug | 1.8 | 1.52 | inactive |
| Cdk2ap2 | no change with or without drug | 0.79 | 0.34 | inactive |
| Ptprh | no change with or without drug | -0.22 | -0.84 | inactive |
| Ptprn | no change with or without drug | -1.12 | -0.34 | inactive |
| Camkv | no change with or without drug | 0 | -0.51 | inactive |
| Iqce | no change with or without drug | -0.79 | 1.18 | inactive |
| S100a9 | no change with or without drug | 0.22 | 1.52 | inactive |
| Adrm1 | no change with or without drug | -0.9 | -0.17 | inactive |
| Timd2 | no change with or without drug | 0.45 | -0.17 | inactive |
| Akap7 | no change with or without drug | -0.67 | 1.01 | inactive |
| Slc7a3 | no change with or without drug | 0.67 | 0.17 | inactive |
| Rpl3 | low cell count with and without drug | -4.83 | -4.89 | inactive |

Continued (7 carried over from the part before).
| gene knocked down | combined z-score class | viability z-score with doxorubicin | viability z-score without drug | outcome |
| --- | --- | --- | --- | --- |
| Iqce | no change with or without drug | -0.79 | 1.18 | inactive |
| S100a9 | no change with or without drug | 0.22 | 1.52 | inactive |
| Adrm1 | no change with or without drug | -0.9 | -0.17 | inactive |
| Timd2 | no change with or without drug | 0.45 | -0.17 | inactive |
| Akap7 | no change with or without drug | -0.67 | 1.01 | inactive |
| Slc7a3 | no change with or without drug | 0.67 | 0.17 | inactive |
| Rpl3 | low cell count with and without drug | -4.83 | -4.89 | inactive |
| Aktip | no change with or without drug | -1.57 | -1.52 | inactive |
| Baz2a | no change with or without drug | 0 | -1.18 | inactive |
| Rnf139 | no change with or without drug | 1.12 | 0.51 | inactive |
| Sap30bp | low cell count without drug only | -1.35 | -2.36 | inactive |
| Gprc5a | no change with or without drug | 0.34 | 0.51 | inactive |
| Abcc5 | no change with or without drug | -0.67 | 1.01 | inactive |
| Mat1a | no change with or without drug | 0.22 | -0.84 | inactive |
| Ifrd2 | no change with or without drug | -1.57 | 1.01 | inactive |
| Gm5111 | no change with or without drug | -0.22 | 0.17 | inactive |
| Narf | no change with or without drug | 0.22 | 1.18 | inactive |
| Plppr1 | no change with or without drug | -0.45 | 0.51 | inactive |
| Dexi | no change with or without drug | 0.67 | 0.84 | inactive |
| Kcnf1 | no change with or without drug | 0.79 | 1.69 | inactive |
| Cpeb3 | no change with or without drug | -0.9 | -0.17 | inactive |
| Dtx3 | no change with or without drug | -1.35 | 0.17 | inactive |
| Igdcc3 | no change with or without drug | -1.35 | -0.84 | inactive |
| Or13c7c | no change with or without drug | 1.35 | 0.17 | inactive |
